Assay results reported in US8293219B2, “Use of long carbon chain quaternary ammonium salt phosphoric acid ester as conditioner for hair” (Nanjing Huashi Chemical Co., Ltd, priority 2007, dated 2012).

assay: Carding force test (Instron 3343 biomechanics tester); details: hair immersed in 10% sample formula at room temperature for 20 minutes, rinsed, air dried; compared with contrast sample; sample content as printed (1% for single esters)
Procedure: Some hair of the oriental having a length of about 15 cm was taken, cleaned thoroughly with 1% SLS, rinsed with water for 2 minutes; the remaining water on the hair was then removed and the hair was immersed in a 10% sample formula at room temperature for 20 minutes. Then, the hair was taken out and rinsed with water for 2 minutes; after being dried in the air, the hair was tested by using Instron 3343 biomechanics tester and compared with the contrast sample. For the test results, see Table 1.

Substance | Reduction of carding force
mono-Isostearamidopropyl PG-dimonium chloride phosphate [ISFA] | 11.0
mono-Behenamidopropyl PG-dimonium chloride phosphate [BFA] | 14.0
mono-Stearamidopropyl PG-dimonium chloride phosphate [SFA] | 7.0
mono-Palmitamidopropyl PG-dimonium chloride phosphate [PFA] | 5.8.
